Where “and” joins values, the source holds several entries; their conditions need not be identical. Equal values may be shown once. The list shows a part of the results. Single wells; the ratio to wells without odorant was worked out here, and repeats agree poorly.
Assays:
Test in all cases: odorant receptor activation (CRE luciferase / Renilla) (fold of no-odor wells); higher = more activation
Settings in all cases: 100 µM
[1] = test system: OR13C3 G2C clone 1339
[2] = test system: OR13C3 clone 1390
[3] = test system: OR13C4 clone 1094
[4] = test system: OR13C5 S18F/L69M/P79S/L86V/N128S/M258T clone 1477
[5] = test system: OR13C7 Indel clone 1100
[6] = test system: OR13C8 clone 1095
[7] = test system: OR13C9 F197L clone 1096
[8] = test system: OR13D1 clone 1338
[9] = test system: OR13D1 clone 1484
[10] = test system: OR13F1 F18S/M101V/V134I/I270T clone 1097
[11] = test system: OR13G1 I132V clone 1036
[12] = test system: OR13H1 clone 1497
[13] = test system: OR13J1 H133R clone 1098
[14] = test system: OR14A16 Indel clone 1030
[15] = test system: OR14A2 clone 1042
[16] = test system: OR14C36 G225R/D231Y clone 1028
[17] = test system: OR14I1 V36A/D50N/S170N clone 1479
[18] = test system: OR14J1 clone 1318
[19] = test system: OR14J1 clone 1391
[20] = test system: OR14K1 clone 1043

Compound | odorant receptor activation [1] | odorant receptor activation [2] | odorant receptor activation [3] | odorant receptor activation [4] | odorant receptor activation [5] | odorant receptor activation [6] | odorant receptor activation [7] | odorant receptor activation [8] | odorant receptor activation [9] | odorant receptor activation [10] | odorant receptor activation [11] | odorant receptor activation [12] | odorant receptor activation [13] | odorant receptor activation [14] | odorant receptor activation [15] | odorant receptor activation [16] | odorant receptor activation [17] | odorant receptor activation [18] | odorant receptor activation [19] | odorant receptor activation [20]
CCOc1cc(C=O)ccc1O [ethyl vanillin] | 0.376 and 1.11 | 1.19 and 1.05 | 1.62 and 1.04 | 1.28 and 1.73 and 1.03 | 0.836 and 1.1 | 1.9 and 1.13 | 0.85 and 1.11 | 2.88 and 1.08 | 1.13 and 1.82 and 1.44 | 0.82 and 0.933 | 0.852 and 1.13 | 0.923 and 1.98 and 1.23 | 1.08 and 1.15 | 1.47 and 1.02 | 1.5 and 1.15 | 1.1 and 1.15 | 1.03 and 1.57 and 1.12 | 1.97 and 1.15 | 1.07 and 1.25 | 0.731 and 1.15
CCC(C)=O [2-butanone] | 1.17 | 1.39 | 16.1 | 1.02 | 12.6 | 3.15 | 34.7 | 1.04 | 0.918 | 1.6 | 2.72 | 1.09 | 3.68 | 2.75 | 2.04 | 3.74 | 0.926 | 1.23 | 1.83 | 3.49
CCCCOC(C)=O [butyl acetate] | 0.981 | 0.218 | 1.21 | 0.832 | 1.36 | 0.92 | 1.2 | 0.785 | 1.29 | 1.19 | 1.08 | 0.872 | 0.849 | 0.82 | 1.17 | 0.811 | 1.24 | 0.669 | 0.136 | 0.89
CS [methanethiol] | 0.936 | 0.802 | 0.94 | 1.13 | 1.14 | 1.24 | 1.23 | 0.921 | 0.825 | 1.15 | 0.893 | 0.891 | 1.08 | 0.993 | 0.82 | 1.17 | 0.88 | 0.767 | 1.11 | 0.834

— the odorant receptor screen of Mainland et al. (2015)
